The test addresses T1, Tribbles homolog 3 (TRIB3) (mouse (endogenous in CAAs derived from 3T3-L1 adipocytes)) (UniProt Q8K4K2).
T1 sequence: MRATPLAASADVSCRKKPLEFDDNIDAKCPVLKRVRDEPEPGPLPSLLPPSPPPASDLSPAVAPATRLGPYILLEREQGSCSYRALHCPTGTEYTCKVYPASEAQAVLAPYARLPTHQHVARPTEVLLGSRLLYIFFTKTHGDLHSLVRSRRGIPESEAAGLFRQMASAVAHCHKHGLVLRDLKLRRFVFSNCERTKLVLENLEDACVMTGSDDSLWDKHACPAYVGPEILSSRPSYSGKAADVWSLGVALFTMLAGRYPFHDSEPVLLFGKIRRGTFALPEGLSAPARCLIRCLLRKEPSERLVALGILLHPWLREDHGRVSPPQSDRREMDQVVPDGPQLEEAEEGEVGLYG
Put plainly: co-IP; anti-TRIB3 or anti-CEBPβ antibodies on extracts prepared from CAAs; TRIB3 or CEBPβ in the IPs detected by immunoblotting. For orientation: Immunoblotting shows a protein as a band on a membrane.

Sequences of proteins named here, by UniProt entry; tags and fusion partners are left off.
UniProt P28033: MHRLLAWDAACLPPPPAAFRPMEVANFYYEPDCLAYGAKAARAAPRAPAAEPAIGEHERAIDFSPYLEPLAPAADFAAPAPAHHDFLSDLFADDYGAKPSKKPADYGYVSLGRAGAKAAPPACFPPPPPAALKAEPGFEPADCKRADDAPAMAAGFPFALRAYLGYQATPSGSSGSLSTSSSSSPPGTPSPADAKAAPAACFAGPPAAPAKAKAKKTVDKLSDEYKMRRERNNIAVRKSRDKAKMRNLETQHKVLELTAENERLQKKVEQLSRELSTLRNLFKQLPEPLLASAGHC

No constants are given. Whether binding was seen depends on the method and setting. In cells and extracts the contact can be indirect. Some binding calls cover weakened binding; strength is not graded here.

In the case of CEBPβ (from UniProt P28033 1-296), the binding entry is given as “binds”.

Source of the values: PMC11668853.
